# Measured values: the supplement of paper PMC11732987, “Enantioselective OTUD7B fragment discovery through chemoproteomics screening and high-throughput optimisation” (Communications Chemistry, 2025)
# The chains behind the UniProt entries cited, without tags or fusion partners. Where a name states a change or a piece, a line headed by the entry shows the natural chain unless it says otherwise. Residues count along the entry.
# UniProt Q92545, 1174-1194: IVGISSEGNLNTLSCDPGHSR
# UniProt Q9UKI8, 67-86: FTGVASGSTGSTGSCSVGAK
# UniProt Q14669, 188-221: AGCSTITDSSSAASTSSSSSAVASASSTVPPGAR
# UniProt Q12888, 586-605: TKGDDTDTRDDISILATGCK
# UniProt Q9Y4G6, 1008-1027: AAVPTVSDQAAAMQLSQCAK
# UniProt Q12931: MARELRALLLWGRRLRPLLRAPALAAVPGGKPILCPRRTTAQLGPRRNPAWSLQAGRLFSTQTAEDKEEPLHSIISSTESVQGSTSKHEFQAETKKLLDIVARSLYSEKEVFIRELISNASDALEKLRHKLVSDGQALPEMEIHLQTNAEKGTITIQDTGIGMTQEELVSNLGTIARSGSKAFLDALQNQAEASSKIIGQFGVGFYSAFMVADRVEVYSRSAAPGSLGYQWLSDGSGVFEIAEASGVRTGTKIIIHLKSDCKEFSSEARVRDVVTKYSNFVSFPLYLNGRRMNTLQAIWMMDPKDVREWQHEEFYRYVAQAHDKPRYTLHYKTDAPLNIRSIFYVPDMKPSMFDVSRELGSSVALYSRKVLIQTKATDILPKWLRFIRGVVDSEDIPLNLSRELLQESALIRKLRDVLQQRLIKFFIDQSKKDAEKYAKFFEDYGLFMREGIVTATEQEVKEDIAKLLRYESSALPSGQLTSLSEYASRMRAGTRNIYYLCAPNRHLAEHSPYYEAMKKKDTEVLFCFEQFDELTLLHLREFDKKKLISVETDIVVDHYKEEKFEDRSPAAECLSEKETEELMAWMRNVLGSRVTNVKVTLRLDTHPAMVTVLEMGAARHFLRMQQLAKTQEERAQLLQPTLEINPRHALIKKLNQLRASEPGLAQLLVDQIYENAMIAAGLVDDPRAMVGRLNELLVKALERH
# UniProt Q92547, 1444-1465: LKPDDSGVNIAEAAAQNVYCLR
# UniProt Q92547, whole entry, looked up: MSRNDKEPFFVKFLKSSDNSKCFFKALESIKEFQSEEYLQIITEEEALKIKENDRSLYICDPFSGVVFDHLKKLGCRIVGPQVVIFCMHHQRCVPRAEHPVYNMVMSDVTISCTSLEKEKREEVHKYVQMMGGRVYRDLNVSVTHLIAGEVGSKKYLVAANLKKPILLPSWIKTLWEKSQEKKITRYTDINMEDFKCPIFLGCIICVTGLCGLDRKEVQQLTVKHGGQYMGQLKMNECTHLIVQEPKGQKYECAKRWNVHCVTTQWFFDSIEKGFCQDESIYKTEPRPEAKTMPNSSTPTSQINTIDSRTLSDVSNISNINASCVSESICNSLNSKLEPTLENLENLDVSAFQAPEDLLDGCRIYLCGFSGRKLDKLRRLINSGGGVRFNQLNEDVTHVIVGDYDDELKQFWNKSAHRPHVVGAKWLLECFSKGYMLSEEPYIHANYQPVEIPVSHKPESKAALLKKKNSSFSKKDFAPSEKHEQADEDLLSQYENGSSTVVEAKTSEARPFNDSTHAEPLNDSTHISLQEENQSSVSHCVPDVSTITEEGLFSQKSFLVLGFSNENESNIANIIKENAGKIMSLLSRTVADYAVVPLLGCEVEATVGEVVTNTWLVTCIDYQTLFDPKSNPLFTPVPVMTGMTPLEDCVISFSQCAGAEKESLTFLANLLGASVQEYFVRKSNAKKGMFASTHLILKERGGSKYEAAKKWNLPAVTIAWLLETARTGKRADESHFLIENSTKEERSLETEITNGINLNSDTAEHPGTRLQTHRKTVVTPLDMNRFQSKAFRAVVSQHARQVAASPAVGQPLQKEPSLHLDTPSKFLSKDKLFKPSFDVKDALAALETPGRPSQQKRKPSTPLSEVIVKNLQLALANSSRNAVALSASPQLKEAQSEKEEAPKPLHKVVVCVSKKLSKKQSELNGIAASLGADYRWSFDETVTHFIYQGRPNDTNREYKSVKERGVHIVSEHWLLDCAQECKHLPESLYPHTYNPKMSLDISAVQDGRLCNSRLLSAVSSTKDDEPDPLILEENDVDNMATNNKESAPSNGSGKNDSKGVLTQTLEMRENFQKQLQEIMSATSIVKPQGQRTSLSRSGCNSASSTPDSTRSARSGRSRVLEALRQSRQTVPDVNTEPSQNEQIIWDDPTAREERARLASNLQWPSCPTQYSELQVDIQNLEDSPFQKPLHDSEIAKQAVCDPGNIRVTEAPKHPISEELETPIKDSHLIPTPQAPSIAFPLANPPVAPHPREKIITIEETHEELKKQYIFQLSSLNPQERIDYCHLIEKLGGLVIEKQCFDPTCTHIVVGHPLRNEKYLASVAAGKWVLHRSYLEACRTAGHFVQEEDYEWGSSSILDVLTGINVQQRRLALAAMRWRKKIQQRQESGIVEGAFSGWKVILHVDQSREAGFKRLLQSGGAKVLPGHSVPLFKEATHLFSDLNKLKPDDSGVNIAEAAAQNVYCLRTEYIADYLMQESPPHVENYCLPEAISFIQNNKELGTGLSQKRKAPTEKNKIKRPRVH
# UniProt Q96HA7: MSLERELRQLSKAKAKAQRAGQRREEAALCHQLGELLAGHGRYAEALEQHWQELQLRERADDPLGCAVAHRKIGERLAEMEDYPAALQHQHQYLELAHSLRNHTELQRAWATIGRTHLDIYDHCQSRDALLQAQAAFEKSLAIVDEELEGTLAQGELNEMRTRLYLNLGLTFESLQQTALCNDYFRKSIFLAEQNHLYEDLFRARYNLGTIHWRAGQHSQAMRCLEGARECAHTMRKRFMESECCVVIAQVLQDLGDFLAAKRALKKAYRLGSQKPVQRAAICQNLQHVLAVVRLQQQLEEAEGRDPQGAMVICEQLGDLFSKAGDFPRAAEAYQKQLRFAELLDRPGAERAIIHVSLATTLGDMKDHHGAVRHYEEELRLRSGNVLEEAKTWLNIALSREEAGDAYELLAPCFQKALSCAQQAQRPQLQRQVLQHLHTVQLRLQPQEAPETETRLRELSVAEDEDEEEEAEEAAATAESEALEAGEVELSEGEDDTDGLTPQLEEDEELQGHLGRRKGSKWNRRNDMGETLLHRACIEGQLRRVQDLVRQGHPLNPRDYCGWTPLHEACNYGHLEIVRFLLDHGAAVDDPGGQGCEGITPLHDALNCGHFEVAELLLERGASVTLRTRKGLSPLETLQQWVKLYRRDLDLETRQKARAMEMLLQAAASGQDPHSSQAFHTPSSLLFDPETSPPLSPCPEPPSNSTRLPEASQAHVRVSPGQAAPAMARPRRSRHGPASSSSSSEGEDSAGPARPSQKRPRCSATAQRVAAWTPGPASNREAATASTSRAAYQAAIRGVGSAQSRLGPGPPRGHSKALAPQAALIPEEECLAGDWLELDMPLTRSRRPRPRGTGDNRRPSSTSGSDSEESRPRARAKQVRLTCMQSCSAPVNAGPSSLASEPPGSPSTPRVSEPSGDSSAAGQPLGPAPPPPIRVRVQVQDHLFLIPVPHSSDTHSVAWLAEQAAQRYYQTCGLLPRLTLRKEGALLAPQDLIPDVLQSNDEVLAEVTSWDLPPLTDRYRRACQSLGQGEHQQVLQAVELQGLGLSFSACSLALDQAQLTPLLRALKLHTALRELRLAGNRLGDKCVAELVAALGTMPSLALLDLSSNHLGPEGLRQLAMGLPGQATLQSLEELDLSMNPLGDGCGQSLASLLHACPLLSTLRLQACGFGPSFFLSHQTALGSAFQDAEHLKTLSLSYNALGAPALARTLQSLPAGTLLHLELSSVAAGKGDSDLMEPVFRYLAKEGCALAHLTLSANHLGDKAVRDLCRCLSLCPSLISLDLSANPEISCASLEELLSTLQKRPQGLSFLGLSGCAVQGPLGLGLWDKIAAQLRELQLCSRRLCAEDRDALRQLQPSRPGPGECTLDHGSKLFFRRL
# UniProt Q9Y490, 1375-1401: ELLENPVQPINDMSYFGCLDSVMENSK
# UniProt Q9H1E5, 310-338: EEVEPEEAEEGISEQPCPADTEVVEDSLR
# UniProt Q96CP7: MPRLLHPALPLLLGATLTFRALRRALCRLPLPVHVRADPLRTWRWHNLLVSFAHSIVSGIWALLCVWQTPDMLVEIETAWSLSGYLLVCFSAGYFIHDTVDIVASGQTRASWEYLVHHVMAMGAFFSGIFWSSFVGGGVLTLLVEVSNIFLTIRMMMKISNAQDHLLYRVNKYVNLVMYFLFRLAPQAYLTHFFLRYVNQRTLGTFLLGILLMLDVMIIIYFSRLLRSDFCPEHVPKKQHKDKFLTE
# UniProt O75663: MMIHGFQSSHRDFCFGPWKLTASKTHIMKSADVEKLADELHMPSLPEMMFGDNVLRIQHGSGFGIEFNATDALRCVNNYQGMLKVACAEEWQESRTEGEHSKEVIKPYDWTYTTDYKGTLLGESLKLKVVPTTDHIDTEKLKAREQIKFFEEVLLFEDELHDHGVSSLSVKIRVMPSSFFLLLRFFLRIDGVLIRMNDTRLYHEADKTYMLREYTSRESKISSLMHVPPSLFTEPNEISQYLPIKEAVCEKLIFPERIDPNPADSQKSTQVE
# UniProt Q04725: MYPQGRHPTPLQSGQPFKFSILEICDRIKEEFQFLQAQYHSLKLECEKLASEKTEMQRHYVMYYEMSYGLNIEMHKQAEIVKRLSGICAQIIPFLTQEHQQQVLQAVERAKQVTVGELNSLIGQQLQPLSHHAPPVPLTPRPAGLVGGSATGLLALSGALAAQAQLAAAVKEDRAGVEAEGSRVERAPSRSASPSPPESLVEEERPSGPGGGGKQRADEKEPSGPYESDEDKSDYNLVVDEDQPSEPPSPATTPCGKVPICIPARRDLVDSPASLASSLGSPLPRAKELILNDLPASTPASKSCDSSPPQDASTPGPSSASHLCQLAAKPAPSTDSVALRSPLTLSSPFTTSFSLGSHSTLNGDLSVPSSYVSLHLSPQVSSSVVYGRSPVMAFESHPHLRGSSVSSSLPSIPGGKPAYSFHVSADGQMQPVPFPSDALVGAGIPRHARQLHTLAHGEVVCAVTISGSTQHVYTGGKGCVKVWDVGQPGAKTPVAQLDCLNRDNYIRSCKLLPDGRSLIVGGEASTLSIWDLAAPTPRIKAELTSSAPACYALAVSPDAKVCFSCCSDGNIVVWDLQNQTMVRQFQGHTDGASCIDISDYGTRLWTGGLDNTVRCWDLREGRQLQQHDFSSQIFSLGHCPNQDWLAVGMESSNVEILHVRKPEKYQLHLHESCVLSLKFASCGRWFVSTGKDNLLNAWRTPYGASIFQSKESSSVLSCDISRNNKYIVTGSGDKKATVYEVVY
# UniProt Q15785: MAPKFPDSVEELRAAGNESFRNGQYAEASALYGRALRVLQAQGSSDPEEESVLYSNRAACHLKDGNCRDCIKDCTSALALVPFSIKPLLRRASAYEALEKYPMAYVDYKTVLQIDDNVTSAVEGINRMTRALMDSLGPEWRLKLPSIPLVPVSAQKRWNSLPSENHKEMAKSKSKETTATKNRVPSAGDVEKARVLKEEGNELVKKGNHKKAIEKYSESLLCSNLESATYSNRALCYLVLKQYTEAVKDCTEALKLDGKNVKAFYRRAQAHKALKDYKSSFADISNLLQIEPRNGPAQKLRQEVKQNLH
# UniProt Q9NYL9, 149-169: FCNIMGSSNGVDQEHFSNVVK
# UniProt Q9BRN9: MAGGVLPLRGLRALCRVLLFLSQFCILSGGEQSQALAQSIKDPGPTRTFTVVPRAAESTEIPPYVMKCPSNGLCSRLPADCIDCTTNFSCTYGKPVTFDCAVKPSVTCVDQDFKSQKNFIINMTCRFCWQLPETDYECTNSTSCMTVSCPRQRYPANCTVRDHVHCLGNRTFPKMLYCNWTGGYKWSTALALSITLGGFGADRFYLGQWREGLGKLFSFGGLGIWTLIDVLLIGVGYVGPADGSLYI
# UniProt O94972: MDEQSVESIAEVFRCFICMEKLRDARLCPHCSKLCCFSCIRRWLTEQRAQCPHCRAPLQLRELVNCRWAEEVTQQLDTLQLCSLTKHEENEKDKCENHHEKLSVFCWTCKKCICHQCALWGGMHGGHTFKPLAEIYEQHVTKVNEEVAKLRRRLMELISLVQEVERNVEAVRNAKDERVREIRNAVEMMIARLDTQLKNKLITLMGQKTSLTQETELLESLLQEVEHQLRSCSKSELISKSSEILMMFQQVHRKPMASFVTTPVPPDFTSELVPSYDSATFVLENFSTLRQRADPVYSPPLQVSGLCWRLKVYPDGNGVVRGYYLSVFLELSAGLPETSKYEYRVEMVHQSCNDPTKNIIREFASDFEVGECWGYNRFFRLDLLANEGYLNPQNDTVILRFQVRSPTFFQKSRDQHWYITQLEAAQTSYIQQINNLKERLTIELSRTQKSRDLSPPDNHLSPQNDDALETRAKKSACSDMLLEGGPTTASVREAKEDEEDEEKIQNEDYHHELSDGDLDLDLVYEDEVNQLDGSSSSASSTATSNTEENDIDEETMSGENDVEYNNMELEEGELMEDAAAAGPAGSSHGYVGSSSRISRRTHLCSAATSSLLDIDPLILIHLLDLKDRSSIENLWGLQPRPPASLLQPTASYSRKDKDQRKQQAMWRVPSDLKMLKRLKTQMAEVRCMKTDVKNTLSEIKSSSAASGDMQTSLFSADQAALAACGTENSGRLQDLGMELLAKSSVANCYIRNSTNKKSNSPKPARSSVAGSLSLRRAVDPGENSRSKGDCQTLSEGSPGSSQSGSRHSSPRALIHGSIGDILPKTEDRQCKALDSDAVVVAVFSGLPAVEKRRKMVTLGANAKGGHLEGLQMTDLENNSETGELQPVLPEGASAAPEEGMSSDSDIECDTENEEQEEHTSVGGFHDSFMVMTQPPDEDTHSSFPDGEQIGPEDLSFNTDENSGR
# The list shows a part of the results. The data scatter; read single values as rough.
# Key:
# [1] = compound: ClCC(=O)N[C@@H]1CCCc2ccccc12; assay: log2 mean competition ratio of IA-DTB cysteine labelling (DMSO/compound) (log2 ratio); higher = stronger cysteine engagement by compound; conditions: treatment time: 4 h, cell line lysate: HEK293T
# Experimental: (§1)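 IA-DTB competitive cysteine chemoproteomics in HEK293T RIPA lysate. Lysates were treated with compound 29 or 30 at 50 or 200 µM for 4 h, then IA-DTB (500 µM, 1 h), trypsin-digested, NeutrAvidin-enriched and analysed by diaPASEF. Competition ratio = intensity DMSO / intensity compound (n=4 treated, n=64 DMSO); binding: mean log2 CR ≥ 1 and p ≤ 0.05 plus QC filters. Target is the cysteine site.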
# [2] = compound: ClCC(=O)N[C@H]1CCCc2ccccc12; assay: as above; conditions: treatment time: 4 h, cell line lysate: HEK293T
# Experimental: as §1
Target,log2 mean competition ratio ([1]; 50 µM),log2 mean competition ratio ([1]; 200 µM),log2 mean competition ratio ([2]; 50 µM),log2 mean competition ratio ([2]; 200 µM)
TNKS1BP1 C1324 (UniProt Q9C0C2),0.104,0.045,0.0343,0.123
TOP3B C190 (UniProt O95985),0.0871,-0.0672,-0.0876,0.0931
TMEM131 C1188 (UniProt Q92545),0.237,0.481,0.52,0.283
TLK1 C81 (UniProt Q9UKI8),-0.0308,-0.129,0.215,-0.213
TRIP12 C332 (UniProt Q14669),0.225,0.0989,0.161,0.125
TP53BP1 C986 (UniProt Q12888),-0.191,0.17,0.00173,0.207
TKFC C155 (UniProt Q3LXA3),0.708,0.0918,0.643,-0.0473
TMEM131 C1747 (UniProt Q92545),0.509,0.239,0.599,-0.0467
TK1 C185,-0.106,0.333,-0.188,0.207
TLN2 C1365 (UniProt Q9Y4G6),-0.279,-0.0956,-0.24,-0.0196
TMEM131L C752,-0.0205,0.534,0.0879,0.299
TRAP1 C573 (UniProt Q12931),-0.155,-0.159,-0.128,-0.269
TOPBP1 C1099 (UniProt Q92547),0.0687,0.136,0.0309,0.0518
TK1 C3,-0.0835,-0.193,0.0832,0.18
TRDMT1 C222 (UniProt O14717),-0.576,-1.38,-0.204,-1.07
TONSL C537 (UniProt Q96HA7),0.0329,0.214,-0.052,0.166
TRIM24 C81 (UniProt O15164),-0.0586,0.0246,0.09,0.0765
TNPO3 C634 (UniProt Q9Y5L0),0.205,0.154,0.0135,-0.291
TIMM50 C236 (UniProt Q3ZCQ8),0.00377,-0.0218,-0.0612,-0.0227
TMEM192 C266 (UniProt Q8IY95),0.579,0.25,0.611,0.23
TONSL C762 (UniProt Q96HA7),0.17,0.23,0.0909,0.0846
TOPBP1 C1463 (UniProt Q92547),0.441,0.426,0.393,0.16
TOPBP1 C276 (UniProt Q92547),0.0617,-0.0193,-0.528,-0.0721
TLN2 C1025 (UniProt Q9Y4G6),0.0193,0.0154,0.399,0.0197
TIMM29 C182 (UniProt Q9BSF4),-0.0156,0.221,0.00614,-0.0933

Target,log2 mean competition ratio ([1]; 50 µM),log2 mean competition ratio ([1]; 200 µM),log2 mean competition ratio ([2]; 50 µM),log2 mean competition ratio ([2]; 200 µM)
TMPO C341,-0.00845,0.108,0.199,0.192
TOE1 C80 (UniProt Q96GM8),0.00958,0.365,-0.342,0.271
TMEM63B C23 (UniProt Q5T3F8),-0.165,-0.0968,0.101,0.201
TP53BP1 C319 (UniProt Q12888),0.0559,-0.0117,0.192,0.228
TMEM175 C32 (UniProt Q9BSA9),0.256,-0.0172,-0.143,0.131
TNRC18 C607 (UniProt O15417),-0.329,0.0461,0.401,-0.0361
TP53BP1 C1178 (UniProt Q12888),-0.356,-0.58,0.165,-0.375
TLN1 C1392 (UniProt Q9Y490),0.0908,-0.433,0.211,-0.404
TRIM33 C447,-0.00165,0.17,-0.182,0.135
TRIM41 C551 (UniProt Q8WV44),-0.285,0.322,-0.213,-0.0283
TRIAP1 C47 (UniProt O43715),-0.159,0.395,-0.0465,0.562
TPP2 C28,-0.263,0.00275,-0.0587,-0.0454
TRIP12 C1538 (UniProt Q14669),-0.138,-0.238,0.0674,0.195
TOE1 C371 (UniProt Q96GM8),-0.148,-0.446,-0.36,-0.172
TNIP2 C21 (UniProt Q8NFZ5),-0.0739,0.204,-0.255,0.171
TONSL C1365 (UniProt Q96HA7),-0.102,0.191,0.0672,0.0637
TMX4 C326 (UniProt Q9H1E5),-0.211,-0.141,-0.194,-0.189
TRIM33 C786,-0.116,0.557,-0.692,0.176
TK1 C230,-0.23,-0.201,-0.0967,0.214
TLCD1 C231 (UniProt Q96CP7),0.0172,0.121,-0.161,0.11
TIMM29 C46 (UniProt Q9BSF4),-0.295,0.0274,-0.274,0.203
TPX2 C536 (UniProt Q9ULW0),0.0428,0.00957,0.0438,0.256
TPR C1068 (UniProt P12270),-0.269,-0.11,-0.244,0.281
TP53INP2 C214,0.262,-0.00694,0.36,-0.0792
TLE3 C528,0.143,-0.113,-0.039,-0.149

# Whole records as entered above. Order of values: log2 mean competition ratio ([1]; 50 µM) | log2 mean competition ratio ([1]; 200 µM) | log2 mean competition ratio ([2]; 50 µM) | log2 mean competition ratio ([2]; 200 µM)
# TONSL C762 (UniProt Q96HA7) in the list: 0.17 | 0.23 | 0.0909 | 0.0846
# TRIP12 C332 (UniProt Q14669) in the list: 0.225 | 0.0989 | 0.161 | 0.125
# TNRC18 C607 (UniProt O15417) in the list: -0.329 | 0.0461 | 0.401 | -0.0361
# TMEM175 C32 (UniProt Q9BSA9) in the list: 0.256 | -0.0172 | -0.143 | 0.131

# Next part:

Target,log2 mean competition ratio ([1]; 50 µM),log2 mean competition ratio ([1]; 200 µM),log2 mean competition ratio ([2]; 50 µM),log2 mean competition ratio ([2]; 200 µM)
TRAK1 C698,0.266,0.0542,0.164,-0.095
TIPRL C14 (UniProt O75663),-0.106,-0.539,-0.0884,-0.202
TKFC C382 (UniProt Q3LXA3),0.596,0.332,0.488,0.45
TNFRSF10D C326 (UniProt Q9UBN6),0.0898,0.0635,0.468,-0.0348
TMPO C280,0.0782,0.286,0.334,0.399
TMEM87B C129 (UniProt Q96K49),-0.0462,0.11,0.0815,0.371
TRIM32 C618 (UniProt Q13049),0.114,-0.138,-0.61,-0.194
TNPO2 C93 (UniProt O14787),-0.349,0.103,-0.138,0.147
TOPBP1 C911 (UniProt Q92547),-0.107,-0.209,0.0645,-0.211
TRAP1 C501 (UniProt Q12931),0.404,-0.0153,0.426,-0.0128
TRAFD1 C109 (UniProt O14545),-0.261,-0.167,0.0908,0.0289
TRIT1 C298 (UniProt Q9H3H1),0.421,0.0179,-0.136,-0.207
TRIP12 C190 (UniProt Q14669),-0.487,-0.0937,-0.731,-0.0402
TMEM199 C124 (UniProt Q8N511),-0.133,0.0203,-0.175,0.0527
TLE2 C261 (UniProt Q04725),-0.121,-0.3,-0.197,0.066
TNKS1BP1 C1373 (UniProt Q9C0C2),0.123,-0.0106,-0.0323,-0.0269
TMEM87A C89 (UniProt Q8NBN3),-0.0375,-0.276,-0.256,-0.25
TRIM41 C227 (UniProt Q8WV44),0.214,-0.0117,0.265,0.119
TP53BP1 C604 (UniProt Q12888),-0.247,0.303,-0.389,0.221
TMEM131L C1082,0.353,-0.0391,0.268,0.0631
TRAPPC10 C162 (UniProt P48553),0.0614,0.264,-0.488,0.183
TNS3 C615 (UniProt Q68CZ2),0.0412,-0.192,-0.0147,0.0187
TRIO C2136 (UniProt O75962),0.0117,0.101,-0.1,0.00906
TOMM34 C222 (UniProt Q15785),0.00118,0.0822,0.3,0.0831
TP53 C182,-0.0567,0.134,-0.776,-0.137

Target,log2 mean competition ratio ([1]; 50 µM),log2 mean competition ratio ([1]; 200 µM),log2 mean competition ratio ([2]; 50 µM),log2 mean competition ratio ([2]; 200 µM)
TIPIN C139 (UniProt Q9BVW5),0.403,-0.221,-0.138,-0.116
TPGS2 C12,-0.103,-0.0282,-0.321,-0.264
TNPO1 C103 (UniProt Q92973),-0.218,-0.0431,0.216,-0.00102
TNFRSF10D C244 (UniProt Q9UBN6),-0.233,0.239,-0.168,-0.0138
TMOD3 C150 (UniProt Q9NYL9),0.577,-0.34,-0.143,-0.0905
TMEM219 C201 (UniProt Q86XT9),0.00401,0.0697,-1.04,-0.103
TRIM47 C631 (UniProt Q96LD4),-0.0498,0.0726,0.212,-0.0394
TLN2 C2153 (UniProt Q9Y4G6),-0.0737,-0.215,0.0912,-0.155
TMEM201 C617 (UniProt Q5SNT2),-0.214,-0.088,-0.559,-0.051
TRIM4 C87 (UniProt Q9C037),-0.0386,-0.139,-0.13,-0.0237
TLN2 C1954 (UniProt Q9Y4G6),0.114,-0.447,0.561,-0.289
TM2D3 C166 (UniProt Q9BRN9),-0.268,0.0236,0.0933,0.381
TONSL C124 (UniProt Q96HA7),-0.0877,0.231,-0.313,0.00626
TRAPPC13 C32 (UniProt A5PLN9),-0.0495,0.16,-0.235,0.0283
TPR C224 (UniProt P12270),0.429,-0.354,0.276,-0.402
TMTC4 C478 (UniProt Q5T4D3),0.234,0.441,-0.000899,0.455
TMEM259 C246 (UniProt Q4ZIN3),-0.303,0.0886,-0.111,0.418
TK1 C66,-0.0688,0.0109,-0.0498,-0.0332
TIMMDC1 C78 (UniProt Q9NPL8),-0.183,0.0595,0.0889,0.193
TPMT C234 (UniProt P51580),0.222,-0.248,0.217,-0.213
TRIM37 C477 (UniProt O94972),-1.13e-05,-0.186,0.359,-0.157
TOX4 C577 (UniProt O94842),-0.162,-0.0131,0.0618,-0.0276
TMCO4 C537 (UniProt Q5TGY1),0.464,0.179,0.00392,0.223
